Reference: the supplement of paper PMC11732987, “Enantioselective OTUD7B fragment discovery through chemoproteomics screening and high-throughput optimisation” (Communications Chemistry, 2025)
The other results are listed elsewhere or left out. The data scatter; read single values as rough.

The chains behind the UniProt entries cited, without tags or fusion partners. Where a name states a change or a piece, a line headed by the entry shows the natural chain unless it says otherwise. Residues count along the entry.
UniProt Q96K58: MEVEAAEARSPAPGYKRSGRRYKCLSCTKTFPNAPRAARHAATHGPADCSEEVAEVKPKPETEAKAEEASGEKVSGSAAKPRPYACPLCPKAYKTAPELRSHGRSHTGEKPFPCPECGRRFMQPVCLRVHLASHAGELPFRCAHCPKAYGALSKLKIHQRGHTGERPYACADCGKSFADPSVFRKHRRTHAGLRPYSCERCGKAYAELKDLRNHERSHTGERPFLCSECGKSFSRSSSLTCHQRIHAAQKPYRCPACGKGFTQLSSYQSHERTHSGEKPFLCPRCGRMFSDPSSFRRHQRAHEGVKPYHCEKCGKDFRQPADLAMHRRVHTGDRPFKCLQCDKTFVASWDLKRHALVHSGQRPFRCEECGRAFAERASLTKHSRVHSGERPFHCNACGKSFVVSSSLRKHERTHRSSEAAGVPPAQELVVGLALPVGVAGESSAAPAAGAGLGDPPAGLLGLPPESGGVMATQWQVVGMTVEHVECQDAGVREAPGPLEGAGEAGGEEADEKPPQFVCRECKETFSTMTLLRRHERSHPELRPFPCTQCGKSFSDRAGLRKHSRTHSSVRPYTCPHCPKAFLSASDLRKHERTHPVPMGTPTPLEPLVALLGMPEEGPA
UniProt O75362, 416-463: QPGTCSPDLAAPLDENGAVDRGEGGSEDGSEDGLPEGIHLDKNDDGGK
UniProt Q9H2Y7: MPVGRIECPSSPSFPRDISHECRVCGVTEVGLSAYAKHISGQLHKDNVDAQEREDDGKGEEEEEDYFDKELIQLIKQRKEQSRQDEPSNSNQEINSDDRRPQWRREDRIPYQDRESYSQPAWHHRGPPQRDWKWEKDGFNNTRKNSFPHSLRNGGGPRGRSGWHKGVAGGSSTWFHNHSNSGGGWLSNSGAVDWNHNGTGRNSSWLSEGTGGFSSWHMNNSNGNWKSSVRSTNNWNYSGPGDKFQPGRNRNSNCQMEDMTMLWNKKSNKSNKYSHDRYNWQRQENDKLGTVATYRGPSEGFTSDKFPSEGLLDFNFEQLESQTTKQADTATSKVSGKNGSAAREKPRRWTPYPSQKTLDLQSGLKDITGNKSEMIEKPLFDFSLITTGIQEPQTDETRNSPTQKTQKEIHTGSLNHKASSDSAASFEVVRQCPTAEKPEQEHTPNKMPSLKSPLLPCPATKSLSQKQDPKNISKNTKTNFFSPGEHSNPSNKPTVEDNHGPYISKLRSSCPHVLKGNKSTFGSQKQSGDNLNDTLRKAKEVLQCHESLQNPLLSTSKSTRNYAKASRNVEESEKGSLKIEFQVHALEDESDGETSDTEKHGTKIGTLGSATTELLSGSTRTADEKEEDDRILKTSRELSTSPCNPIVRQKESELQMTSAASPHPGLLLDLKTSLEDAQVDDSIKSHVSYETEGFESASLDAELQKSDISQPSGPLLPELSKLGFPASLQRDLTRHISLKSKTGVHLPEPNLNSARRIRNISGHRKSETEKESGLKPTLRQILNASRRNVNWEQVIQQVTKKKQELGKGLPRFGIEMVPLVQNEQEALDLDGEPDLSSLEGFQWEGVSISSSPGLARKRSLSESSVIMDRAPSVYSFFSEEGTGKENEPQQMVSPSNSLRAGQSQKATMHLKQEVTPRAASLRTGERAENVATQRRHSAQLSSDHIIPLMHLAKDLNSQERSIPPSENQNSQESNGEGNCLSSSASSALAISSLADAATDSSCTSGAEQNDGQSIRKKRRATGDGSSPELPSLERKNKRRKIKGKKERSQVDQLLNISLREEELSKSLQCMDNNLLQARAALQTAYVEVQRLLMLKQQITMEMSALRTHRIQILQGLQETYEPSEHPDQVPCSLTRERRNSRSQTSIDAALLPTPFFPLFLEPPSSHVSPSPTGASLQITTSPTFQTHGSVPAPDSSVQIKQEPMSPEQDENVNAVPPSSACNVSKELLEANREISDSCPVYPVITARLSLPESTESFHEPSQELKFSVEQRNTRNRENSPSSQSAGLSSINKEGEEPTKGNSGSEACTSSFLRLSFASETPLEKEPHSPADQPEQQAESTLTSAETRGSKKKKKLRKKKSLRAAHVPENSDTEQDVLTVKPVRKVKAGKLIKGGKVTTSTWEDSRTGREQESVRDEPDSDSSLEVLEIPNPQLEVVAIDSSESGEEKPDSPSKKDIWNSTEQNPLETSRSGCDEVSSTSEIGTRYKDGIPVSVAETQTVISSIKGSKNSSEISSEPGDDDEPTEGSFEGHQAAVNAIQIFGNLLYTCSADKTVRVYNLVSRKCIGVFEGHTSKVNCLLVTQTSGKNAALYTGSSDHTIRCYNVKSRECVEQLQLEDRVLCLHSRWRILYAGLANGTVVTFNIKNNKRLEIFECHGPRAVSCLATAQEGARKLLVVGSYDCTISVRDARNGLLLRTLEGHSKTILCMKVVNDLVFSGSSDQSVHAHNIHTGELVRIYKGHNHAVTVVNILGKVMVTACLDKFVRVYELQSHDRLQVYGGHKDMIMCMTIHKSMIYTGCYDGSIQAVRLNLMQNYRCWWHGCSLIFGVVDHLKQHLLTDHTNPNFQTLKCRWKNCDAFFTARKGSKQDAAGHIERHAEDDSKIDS
UniProt Q9H609: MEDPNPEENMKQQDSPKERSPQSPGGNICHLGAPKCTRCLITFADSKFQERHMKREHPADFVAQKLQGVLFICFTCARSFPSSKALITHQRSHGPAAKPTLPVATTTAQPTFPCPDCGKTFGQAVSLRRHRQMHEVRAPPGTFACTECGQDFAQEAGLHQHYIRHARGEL
UniProt Q7Z3T8: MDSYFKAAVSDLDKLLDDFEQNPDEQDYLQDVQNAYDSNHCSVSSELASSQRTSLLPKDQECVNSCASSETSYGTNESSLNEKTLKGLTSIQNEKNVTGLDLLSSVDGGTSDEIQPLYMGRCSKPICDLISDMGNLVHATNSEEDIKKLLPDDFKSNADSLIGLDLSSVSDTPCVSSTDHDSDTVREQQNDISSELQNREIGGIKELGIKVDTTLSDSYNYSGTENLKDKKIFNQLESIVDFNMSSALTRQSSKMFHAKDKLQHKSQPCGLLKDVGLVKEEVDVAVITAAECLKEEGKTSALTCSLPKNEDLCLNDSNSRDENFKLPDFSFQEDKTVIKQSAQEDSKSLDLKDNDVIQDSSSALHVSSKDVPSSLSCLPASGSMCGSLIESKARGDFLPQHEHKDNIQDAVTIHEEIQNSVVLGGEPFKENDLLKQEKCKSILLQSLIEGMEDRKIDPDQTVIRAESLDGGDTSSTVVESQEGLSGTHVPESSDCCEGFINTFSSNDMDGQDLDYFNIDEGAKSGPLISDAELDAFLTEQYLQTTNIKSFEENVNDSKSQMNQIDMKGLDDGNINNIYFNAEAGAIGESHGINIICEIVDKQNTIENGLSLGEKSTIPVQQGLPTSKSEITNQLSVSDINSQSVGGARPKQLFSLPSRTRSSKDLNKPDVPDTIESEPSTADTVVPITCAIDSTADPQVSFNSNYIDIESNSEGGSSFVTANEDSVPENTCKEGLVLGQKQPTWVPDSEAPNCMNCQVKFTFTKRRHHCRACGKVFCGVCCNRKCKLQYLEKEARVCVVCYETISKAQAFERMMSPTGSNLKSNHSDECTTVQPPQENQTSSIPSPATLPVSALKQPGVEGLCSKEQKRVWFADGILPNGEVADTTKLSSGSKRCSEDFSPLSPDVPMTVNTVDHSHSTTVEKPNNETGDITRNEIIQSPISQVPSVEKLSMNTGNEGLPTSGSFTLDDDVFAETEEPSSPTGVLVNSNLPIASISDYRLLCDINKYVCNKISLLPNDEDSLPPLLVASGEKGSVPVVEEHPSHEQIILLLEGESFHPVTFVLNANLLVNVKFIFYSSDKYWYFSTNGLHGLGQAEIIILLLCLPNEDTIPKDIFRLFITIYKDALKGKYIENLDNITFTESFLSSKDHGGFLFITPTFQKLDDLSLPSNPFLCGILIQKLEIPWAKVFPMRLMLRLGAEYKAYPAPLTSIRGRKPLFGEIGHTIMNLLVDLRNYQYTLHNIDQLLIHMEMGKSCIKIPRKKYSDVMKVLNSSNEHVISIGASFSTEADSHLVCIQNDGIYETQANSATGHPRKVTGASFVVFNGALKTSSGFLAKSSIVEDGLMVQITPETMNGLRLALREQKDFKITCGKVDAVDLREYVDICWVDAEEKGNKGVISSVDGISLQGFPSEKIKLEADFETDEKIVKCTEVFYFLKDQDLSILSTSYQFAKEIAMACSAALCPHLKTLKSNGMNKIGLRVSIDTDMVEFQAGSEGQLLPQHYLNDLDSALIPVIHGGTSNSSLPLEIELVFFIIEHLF
UniProt Q9NUE0: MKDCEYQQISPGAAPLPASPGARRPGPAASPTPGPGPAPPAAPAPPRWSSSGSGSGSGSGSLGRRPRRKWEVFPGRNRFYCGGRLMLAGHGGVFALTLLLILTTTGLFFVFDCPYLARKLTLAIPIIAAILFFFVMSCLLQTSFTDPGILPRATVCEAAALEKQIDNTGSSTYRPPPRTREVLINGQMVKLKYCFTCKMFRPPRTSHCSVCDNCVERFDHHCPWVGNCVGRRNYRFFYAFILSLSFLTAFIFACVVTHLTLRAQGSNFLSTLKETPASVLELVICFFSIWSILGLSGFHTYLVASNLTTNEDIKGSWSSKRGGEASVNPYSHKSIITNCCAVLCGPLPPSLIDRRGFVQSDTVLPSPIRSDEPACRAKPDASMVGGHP
UniProt Q9NWK9: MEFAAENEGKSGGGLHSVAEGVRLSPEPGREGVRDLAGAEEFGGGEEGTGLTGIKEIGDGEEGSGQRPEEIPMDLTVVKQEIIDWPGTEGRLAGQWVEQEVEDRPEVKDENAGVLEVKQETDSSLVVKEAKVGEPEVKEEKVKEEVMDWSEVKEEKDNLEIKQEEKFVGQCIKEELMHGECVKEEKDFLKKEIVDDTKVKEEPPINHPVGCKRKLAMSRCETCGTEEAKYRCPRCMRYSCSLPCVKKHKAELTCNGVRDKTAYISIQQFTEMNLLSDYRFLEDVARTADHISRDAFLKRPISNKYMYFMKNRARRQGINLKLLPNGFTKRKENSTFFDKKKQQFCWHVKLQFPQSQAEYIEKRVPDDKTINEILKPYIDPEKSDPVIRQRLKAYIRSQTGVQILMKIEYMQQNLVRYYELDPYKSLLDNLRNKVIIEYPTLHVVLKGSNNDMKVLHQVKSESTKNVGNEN
UniProt O15014: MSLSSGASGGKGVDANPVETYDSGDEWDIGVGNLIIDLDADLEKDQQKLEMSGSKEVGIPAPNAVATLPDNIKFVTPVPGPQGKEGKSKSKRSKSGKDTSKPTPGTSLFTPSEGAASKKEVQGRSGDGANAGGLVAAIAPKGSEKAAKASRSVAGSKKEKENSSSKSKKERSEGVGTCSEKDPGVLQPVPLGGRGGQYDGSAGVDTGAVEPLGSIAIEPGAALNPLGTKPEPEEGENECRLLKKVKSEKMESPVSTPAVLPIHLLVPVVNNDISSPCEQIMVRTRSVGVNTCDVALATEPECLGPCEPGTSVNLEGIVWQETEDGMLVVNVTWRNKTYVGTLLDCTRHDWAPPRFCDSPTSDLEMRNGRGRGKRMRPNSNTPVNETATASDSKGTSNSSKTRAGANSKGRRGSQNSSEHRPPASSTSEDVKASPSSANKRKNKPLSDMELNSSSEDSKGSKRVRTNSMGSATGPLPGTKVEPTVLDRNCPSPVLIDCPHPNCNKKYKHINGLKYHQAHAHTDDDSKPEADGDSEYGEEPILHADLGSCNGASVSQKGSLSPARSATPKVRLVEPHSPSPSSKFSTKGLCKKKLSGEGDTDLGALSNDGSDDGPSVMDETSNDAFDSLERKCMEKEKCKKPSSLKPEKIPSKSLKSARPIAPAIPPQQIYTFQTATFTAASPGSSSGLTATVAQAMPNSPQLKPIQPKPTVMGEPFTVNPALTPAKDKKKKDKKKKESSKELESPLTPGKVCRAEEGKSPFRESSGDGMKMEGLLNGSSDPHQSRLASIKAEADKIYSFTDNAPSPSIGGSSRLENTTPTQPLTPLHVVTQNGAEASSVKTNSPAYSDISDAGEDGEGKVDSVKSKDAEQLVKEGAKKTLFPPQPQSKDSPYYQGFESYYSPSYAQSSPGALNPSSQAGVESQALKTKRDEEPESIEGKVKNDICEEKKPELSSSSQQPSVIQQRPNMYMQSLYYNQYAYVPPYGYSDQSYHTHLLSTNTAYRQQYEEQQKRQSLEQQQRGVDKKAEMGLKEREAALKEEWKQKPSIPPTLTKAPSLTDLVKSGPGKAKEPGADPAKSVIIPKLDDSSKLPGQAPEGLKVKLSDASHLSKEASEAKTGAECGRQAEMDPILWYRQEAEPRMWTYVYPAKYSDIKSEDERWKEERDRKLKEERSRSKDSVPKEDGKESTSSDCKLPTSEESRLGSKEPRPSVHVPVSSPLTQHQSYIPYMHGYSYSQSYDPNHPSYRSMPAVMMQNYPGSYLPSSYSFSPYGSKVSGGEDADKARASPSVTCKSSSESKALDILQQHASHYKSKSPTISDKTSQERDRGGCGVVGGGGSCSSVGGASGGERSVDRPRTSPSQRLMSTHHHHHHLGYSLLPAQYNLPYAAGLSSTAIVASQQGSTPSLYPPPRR

compound: ClCC(=O)N[C@H]1CCCc2ccccc12; assay: log2 mean competition ratio of IA-DTB cysteine labelling (DMSO/compound) (log2 ratio); higher = stronger cysteine engagement by compound; details: 50 µM; treatment time: 4 h; cell line lysate: HEK293T
Description: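 IA-DTB competitive cysteine chemoproteomics in HEK293T RIPA lysate. Lysates were treated with compound 29 or 30 at 50 or 200 µM for 4 h, then IA-DTB (500 µM, 1 h), trypsin-digested, NeutrAvidin-enriched and analysed by diaPASEF. Competition ratio = intensity DMSO / intensity compound (n=4 treated, n=64 DMSO); binding: mean log2 CR ≥ 1 and p ≤ 0.05 plus QC filters. Target is the cysteine site.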

Target | log2 mean competition ratio
ZC3H7B C576 (UniProt Q9UGR2) | 0.411
ZEB1 C82 (UniProt P37275) | 0.0796
ZNF687 C718 (UniProt Q8N1G0) | 0.394
ZMYM3 C1048 (UniProt Q14202) | 0.801
ZNF668 C241 (UniProt Q96K58) | 0.112
ZNF14 C80 | -0.0648
ZNF217 C420 (UniProt O75362) | -0.373
ZNF106 C544 (UniProt Q9H2Y7) | -0.332
ZDHHC13 C51 (UniProt Q8IUH4) | -0.0233
ZNF576 C29 (UniProt Q9H609) | 0.00787
ZNF318 C140 (UniProt Q5VUA4) | -0.242
ZNF654 C45, A0A1B0GWA0 | -0.228
ZNF205 C197 | 0.0466
ZZZ3 C104 (UniProt Q8IYH5) | -0.0896
ZFYVE16 C1002 (UniProt Q7Z3T8) | 0.0191
ZNF747 C108 | -0.65
ZDHHC18 C375 (UniProt Q9NUE0) | -0.0859
ZNHIT6 C211 (UniProt Q9NWK9) | 0.0687
ZNF609 C944 (UniProt O15014) | -0.226
ZNF391 C343 (UniProt Q9UJN7) | 0.837

same assay, conditions: 200 µM; treatment time: 4 h; cell line lysate: HEK293T

Target | log2 mean competition ratio
ZC3H7B C576 (UniProt Q9UGR2) | -0.0061
ZEB1 C82 (UniProt P37275) | 0.062
ZNF687 C718 (UniProt Q8N1G0) | 0.104
ZMYM3 C1048 (UniProt Q14202) | 0.311
ZNF668 C241 (UniProt Q96K58) | -0.141
ZNF14 C80 | -0.437
ZNF217 C420 (UniProt O75362) | -0.367
ZNF106 C544 (UniProt Q9H2Y7) | -0.215
ZDHHC13 C51 (UniProt Q8IUH4) | 0.385
ZNF576 C29 (UniProt Q9H609) | 0.19
ZNF318 C140 (UniProt Q5VUA4) | 0.155
ZNF654 C45, A0A1B0GWA0 | -0.0334
ZNF205 C197 | -0.0127
ZZZ3 C104 (UniProt Q8IYH5) | 0.421
ZFYVE16 C1002 (UniProt Q7Z3T8) | 0.177
ZNF747 C108 | 0.205
ZDHHC18 C375 (UniProt Q9NUE0) | 0.291
ZNHIT6 C211 (UniProt Q9NWK9) | -0.143
ZNF609 C944 (UniProt O15014) | -0.214
ZNF391 C343 (UniProt Q9UJN7) | 0.727
